Laboratory results: PubChem BioAssay AID256 (DTP/NCI, 2004)
The list does not hold the whole screen: its compounds were picked by chemical class. Not every dose and run of a compound is shown. T/C: endpoint of the treated group in % of that of the vehicle group. For survival time, this PubChem deposit counts one and a half times the control or more as active, and values a quarter to a half above the control carry no call in these data; other NCI protocols may use other cut-offs. Schedules are NCI's codes, taken here to give the interval after Q, in days (D) or hours (H), and the number of doses after X. Some entries show no survivor count and are marked so; the dose need not have been tolerated. Signs of the kind (2×) give the number of equal values in this list. Some entries were tested several times; their values stand side by side, smallest first.

Tested on: CD2F1 mice, L1210 leukemia ip, survival T/C
Assay: NCI In Vivo Anticancer Drug Screen. Data for tumor model L1210 Leukemia (intraperitoneal) in CD2F1 (CDF1) mice
Details: higher T/C = longer survival
Protocol: The antitumor activity of compounds was measured in mice bearing transplantable tumors. Survival or tumor size were measured and the results are expressed as the measurement made in the treated group (T) divided by the measurement made in the vehicle treated control group (C). The tumor model used in this assay is L1210 Leukemia (intraperitoneal) in CD2F1 (CDF1) mice

## CN(CCCl)CCCl
T/C endpoint: mean survival time, dose: 0.75 mg/kg/injection, schedule: Q04DX003 (ip), vehicle: saline
  T/C: 152 % of control [survivor count not shown]
T/C endpoint: mean survival time, dose: 0.8 mg/kg/injection, schedule: Q01DX001 (ip), vehicle: none
  T/C: 132 % of control [survivor count not shown]
T/C endpoint: mean survival time, dose: 0.8 mg/kg/injection, schedule: Q01DX001 (ip), vehicle: saline
  T/C: 132 % of control [survivor count not shown]
T/C endpoint: mean survival time, dose: 1.0 mg/kg/injection, schedule: Q01DX001 (ip), vehicle: saline
  T/C: 115 [survivor count not shown] (2×) and 136 % of control [survivor count not shown]
T/C endpoint: mean survival time, dose: 1.0 mg/kg/injection, schedule: Q01DX001 (ip), vehicle: water
  T/C: 115 % of control [survivor count not shown]
T/C endpoint: mean survival time, dose: 1.0 mg/kg/injection, schedule: Q01DX001 (iv), vehicle: water
  T/C: 110 % of control [survivor count not shown]
T/C endpoint: mean survival time, dose: 1.0 mg/kg/injection, schedule: Q01DX001 (sc), vehicle: water
  T/C: 113 % of control [survivor count not shown]
T/C endpoint: mean survival time, dose: 1.0 mg/kg/injection, schedule: Q01DX005 (iv), vehicle: water
  T/C: 127 % of control [survivor count not shown]
T/C endpoint: mean survival time, dose: 1.0 mg/kg/injection, schedule: Q01DX009 (ip), vehicle: saline
  T/C: 123 [survivor count not shown] and 146 % of control [survivor count not shown]
T/C endpoint: mean survival time, dose: 1.0 mg/kg/injection, schedule: Q01DX009 (oral), vehicle: water
  T/C: 104 % of control [survivor count not shown]
T/C endpoint: mean survival time, dose: 1.0 mg/kg/injection, schedule: Q01DX009 (sc), vehicle: water
  T/C: 118 % of control [survivor count not shown]
T/C endpoint: mean survival time, dose: 1.0 mg/kg/injection, schedule: Q04DX003 (ip), vehicle: saline with Tween-80
  T/C: 141 % of control [survivor count not shown]
T/C endpoint: mean survival time, dose: 1.0 mg/kg/injection, schedule: Q04DX003 (ip), vehicle: saline, evaluated on day 30
  T/C: 134 % of control
T/C endpoint: mean survival time, dose: 1.0 mg/kg/injection, schedule: Q04DX003 (ip), vehicle: saline, evaluation day not shown
  T/C: 128 % of control [survivor count not shown]
T/C endpoint: mean survival time, dose: 1.0 mg/kg/injection, schedule: Q04DX003 (ip), vehicle: water
  T/C: 135 % of control [survivor count not shown]
T/C endpoint: mean survival time, dose: 1.0 mg/kg/injection, schedule: Q08DX002 (ip), vehicle: water
  T/C: 125 % of control [survivor count not shown]
T/C endpoint: mean survival time, dose: 1.5 mg/kg/injection, schedule: Q01DX001 (ip), vehicle: DMSO
  T/C: 137 % of control [survivor count not shown]
T/C endpoint: mean survival time, dose: 1.5 mg/kg/injection, schedule: Q01DX001 (ip), vehicle: Klucel (hydroxypropylcellulose) (HPC)
  T/C: 135 [survivor count not shown] and 144 % of control [survivor count not shown]
T/C endpoint: mean survival time, dose: 1.5 mg/kg/injection, schedule: Q01DX001 (ip), vehicle: other
  T/C: 124 % of control [survivor count not shown]
T/C endpoint: mean survival time, dose: 1.5 mg/kg/injection, schedule: Q01DX001 (ip), vehicle: saline
  T/C: 124 [survivor count not shown], 131 [survivor count not shown], 132 [survivor count not shown], 155 % of control [survivor count not shown]
T/C endpoint: mean survival time, dose: 1.5 mg/kg/injection, schedule: Q04DX003 (ip), vehicle: saline with Tween-80
  T/C: 161 % of control [survivor count not shown]
T/C endpoint: mean survival time, dose: 1.5 mg/kg/injection, schedule: Q04DX003 (ip), vehicle: saline
  T/C: 149 [survivor count not shown] and 193 % of control [survivor count not shown]
T/C endpoint: mean survival time, dose: 1.6 mg/kg/injection, schedule: Q01DX001 (ip), vehicle: none
  T/C: 129 % of control [survivor count not shown]
T/C endpoint: mean survival time, dose: 1.6 mg/kg/injection, schedule: Q01DX001 (ip), vehicle: saline
  T/C: 129 % of control [survivor count not shown]
T/C endpoint: mean survival time, dose: 2.0 mg/kg/injection, schedule: Q01DX001 (ip), vehicle: saline
  T/C: 121 [survivor count not shown] (2×) and 142 % of control [survivor count not shown]
T/C endpoint: mean survival time, dose: 2.0 mg/kg/injection, schedule: Q01DX001 (ip), vehicle: water
  T/C: 134 % of control [survivor count not shown]
T/C endpoint: mean survival time, dose: 2.0 mg/kg/injection, schedule: Q01DX001 (iv), vehicle: water
  T/C: 120 % of control [survivor count not shown]
T/C endpoint: mean survival time, dose: 2.0 mg/kg/injection, schedule: Q01DX001 (sc), vehicle: water
  T/C: 123 % of control [survivor count not shown]
T/C endpoint: mean survival time, dose: 2.0 mg/kg/injection, schedule: Q01DX009 (ip), vehicle: saline
  T/C: 95 % of control [survivor count not shown]
T/C endpoint: mean survival time, dose: 2.0 mg/kg/injection, schedule: Q01DX009 (oral), vehicle: water
  T/C: 120 % of control [survivor count not shown]
T/C endpoint: mean survival time, dose: 2.0 mg/kg/injection, schedule: Q04DX003 (ip), vehicle: saline
  T/C: 136 % of control
T/C endpoint: mean survival time, dose: 2.0 mg/kg/injection, schedule: Q04DX003 (ip), vehicle: water
  T/C: 138 % of control [survivor count not shown]
T/C endpoint: mean survival time, dose: 2.0 mg/kg/injection, schedule: Q08DX002 (ip), vehicle: water
  T/C: 131 % of control [survivor count not shown]
T/C endpoint: mean survival time, dose: 2.3 mg/kg/injection, schedule: Q01DX001 (ip), vehicle: saline
  T/C: 145 [survivor count not shown] and 197 % of control [survivor count not shown]
T/C endpoint: mean survival time, dose: 3.0 mg/kg/injection, schedule: Q01DX001 (ip), vehicle: DMSO
  T/C: 164 % of control [survivor count not shown]
T/C endpoint: mean survival time, dose: 3.0 mg/kg/injection, schedule: Q01DX001 (ip), vehicle: Klucel (hydroxypropylcellulose) (HPC)
  T/C: 131 % of control [survivor count not shown]
T/C endpoint: mean survival time, dose: 3.0 mg/kg/injection, schedule: Q01DX001 (ip), vehicle: saline
  T/C: 102 [survivor count not shown], 141 [survivor count not shown], 142 [survivor count not shown], 149 % of control [survivor count not shown]
T/C endpoint: mean survival time, dose: 3.0 mg/kg/injection, schedule: Q04DX003 (ip), vehicle: saline
  T/C: 94 % of control [survivor count not shown]
T/C endpoint: mean survival time, dose: 3.2 mg/kg/injection, schedule: Q01DX001 (ip), vehicle: none
  T/C: 86 % of control [survivor count not shown]
T/C endpoint: mean survival time, dose: 3.2 mg/kg/injection, schedule: Q01DX001 (ip), vehicle: saline
  T/C: 86 % of control [survivor count not shown]
T/C endpoint: mean survival time, dose: 3.4 mg/kg/injection, schedule: Q01DX001 (ip), vehicle: saline
  T/C: 136 [survivor count not shown] and 185 % of control [survivor count not shown]
T/C endpoint: mean survival time, dose: 4.0 mg/kg/injection, schedule: Q01DX001 (ip), vehicle: saline
  T/C: 122 % of control [survivor count not shown] (2×)
T/C endpoint: mean survival time, dose: 4.0 mg/kg/injection, schedule: Q01DX001 (ip), vehicle: water
  T/C: 115 % of control [survivor count not shown]
T/C endpoint: mean survival time, dose: 4.0 mg/kg/injection, schedule: Q01DX001 (iv), vehicle: water
  T/C: 119 % of control [survivor count not shown]
T/C endpoint: mean survival time, dose: 4.0 mg/kg/injection, schedule: Q01DX009 (oral), vehicle: water
  T/C: 122 % of control [survivor count not shown]
T/C endpoint: mean survival time, dose: 4.0 mg/kg/injection, schedule: Q08DX002 (ip), vehicle: water
  T/C: 121 % of control [survivor count not shown]
T/C endpoint: mean survival time, dose: 6.0 mg/kg/injection, schedule: Q01DX001 (ip), vehicle: DMSO
  T/C: 167 % of control [survivor count not shown]
T/C endpoint: mean survival time, dose: 6.0 mg/kg/injection, schedule: Q01DX001 (ip), vehicle: saline
  T/C: 98 [survivor count not shown] and 117 % of control [survivor count not shown]
T/C endpoint: mean survival time, dose: 8.0 mg/kg/injection, schedule: Q01DX001 (ip), vehicle: saline
  T/C: 118 % of control [survivor count not shown] (2×)
T/C endpoint: mean survival time, dose: 8.0 mg/kg/injection, schedule: Q01DX001 (oral), vehicle: water
  T/C: 108 % of control [survivor count not shown]
T/C endpoint: mean survival time, dose: 8.0 mg/kg/injection, schedule: Q01DX009 (oral), vehicle: water
  T/C: 96 % of control [survivor count not shown]
T/C endpoint: mean survival time, dose: 16.0 mg/kg/injection, schedule: Q01DX001 (oral), vehicle: water
  T/C: 116 % of control [survivor count not shown]
T/C endpoint: median survival time, dose: 0.06 mg/kg/injection, schedule: Q01DX009 (ip), vehicle: saline
  T/C: 114 % of control
T/C endpoint: median survival time, dose: 0.12 mg/kg/injection, schedule: Q01DX005 (ip), vehicle: saline
  T/C: 140 % of control
T/C endpoint: median survival time, dose: 0.12 mg/kg/injection, schedule: Q01DX009 (ip), vehicle: saline
  T/C: 133 % of control
T/C endpoint: median survival time, dose: 0.13 mg/kg/injection, schedule: Q01DX009 (ip), vehicle: saline
  T/C: 127 [survivor count not shown] and 142 % of control [survivor count not shown]
T/C endpoint: median survival time, dose: 0.25 mg/kg/injection, schedule: Q01DX005 (ip), vehicle: saline
  T/C: 144 % of control
T/C endpoint: median survival time, dose: 0.25 mg/kg/injection, schedule: Q01DX009 (ip), vehicle: saline, evaluated on day 30
  T/C: 246 % of control
T/C endpoint: median survival time, dose: 0.25 mg/kg/injection, schedule: Q01DX009 (ip), vehicle: saline, evaluation day not shown
  T/C: 127 [survivor count not shown] and 142 % of control [survivor count not shown]
T/C endpoint: median survival time, dose: 0.5 mg/kg/injection, schedule: Q01DX005 (ip), vehicle: saline
  T/C: 156 % of control
T/C endpoint: median survival time, dose: 0.5 mg/kg/injection, schedule: Q01DX009 (ip), vehicle: saline, evaluated on day 30
  T/C: 246 % of control
T/C endpoint: median survival time, dose: 0.5 mg/kg/injection, schedule: Q01DX009 (ip), vehicle: saline, evaluation day not shown
  T/C: 127 [survivor count not shown] and 157 % of control [survivor count not shown]
T/C endpoint: median survival time, dose: 0.7 mg/kg/injection, schedule: Q04DX002 (ip), vehicle: saline
  T/C: 107 % of control [survivor count not shown]
T/C endpoint: median survival time, dose: 0.76 mg/kg/injection, schedule: Q01DX001 (ip), vehicle: saline
  T/C: 106 [survivor count not shown], 109 [survivor count not shown], 145 % of control [survivor count not shown]
T/C endpoint: median survival time, dose: 1.0 mg/kg/injection, schedule: Q01DX005 (ip), vehicle: saline
  T/C: 188 % of control
T/C endpoint: median survival time, dose: 1.0 mg/kg/injection, schedule: Q01DX009 (ip), vehicle: saline, evaluated on day 30
  T/C: 246 % of control
T/C endpoint: median survival time, dose: 1.0 mg/kg/injection, schedule: Q01DX009 (ip), vehicle: saline, evaluation day not shown
  T/C: 100 [survivor count not shown] and 114 % of control [survivor count not shown]
T/C endpoint: median survival time, dose: 1.2 mg/kg/injection, schedule: Q04DX002 (ip), vehicle: saline
  T/C: 109 % of control [survivor count not shown]
T/C endpoint: median survival time, dose: 1.3 mg/kg/injection, schedule: Q01DX001 (ip), vehicle: saline
  T/C: 96 [survivor count not shown], 100 [survivor count not shown], 105 % of control [survivor count not shown]
T/C endpoint: median survival time, dose: 2.0 mg/kg/injection, schedule: Q01DX005 (ip), vehicle: saline
  T/C: 109 % of control
T/C endpoint: median survival time, dose: 2.0 mg/kg/injection, schedule: Q04DX002 (ip), vehicle: saline
  T/C: 113 % of control [survivor count not shown]
T/C endpoint: median survival time, dose: 2.1 mg/kg/injection, schedule: Q01DX001 (ip), vehicle: saline
  T/C: 104 [survivor count not shown], 108 [survivor count not shown], 147 % of control [survivor count not shown]
T/C endpoint: median survival time, dose: 3.3 mg/kg/injection, schedule: Q04DX002 (ip), vehicle: saline
  T/C: 116 % of control [survivor count not shown]
T/C endpoint: median survival time, dose: 3.5 mg/kg/injection, schedule: Q01DX001 (ip), vehicle: saline
  T/C: 109 [survivor count not shown], 113 [survivor count not shown], 149 % of control [survivor count not shown]
